Out of some 52,000 sequences screened, about 210 (0.4%) were called active.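 The calls were made as follows: active = gene whose silencing raises cell survival under the drug, median off-target-corrected z-score across its silencing RNAs 2 or more; inactive = the rest.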 Some of the results follow.
Test: Resistance to Poly (ADP-Ribose) Polymerase inhibitor: Gene Identification via Genome-wide siRNA Screen
Settings: mouse BRCA2 R2336H ES cells, olaparib, CellTiter-Glo viability; hits give high values
Method in brief: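 Genome-wide siRNA screen (3 siRNAs/gene, 20 nM) in mouse ES cells carrying hypomorphic BRCA2 R2336H; olaparib 500 nM added 48 h post-transfection, CellTiter-Glo viability 72 h later. Normalized to plate-median negative control; MAD z-scores, gene median, seed-adjusted.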
With GGCUUUUGAGAGCUACCGGTT against Ell the z-score was inactive: 0.29. For GGCUCUCAUUGAUGCAUGUTT against Cpeb4, the z-score was inactive: 0.514. For GGCUGUCACCCUACAUGACTT against Ube1x, the z-score was inactive: -0.283. In the case of “GGCUAAAACACUUAUCAAUTT against 4921537P18Rik”, the z-score is reported as inactive: -1.85. For GGUGAUUUUCGAUAUACACTT against Dclre1b, the z-score was inactive: 0.328. For GGAUGCCAAAGCAGCUCAUTT against Epc1, the z-score was inactive: -0.0654. With GCUUGAUGACUACCACUGATT against BC011248 the z-score was inactive: -0.84. With GGGAGAUCUUGACAAAUUCTT against Aplp1 the z-score was inactive: 0.458. With GGACAUACGGUUUCAUUGUTT against Ptprv the z-score was inactive: -0.879. With “CCAGCGUGAUAGCUAAGAATT against 4732479N06Rik” the z-score was inactive: -0.541. In the case of CCUUUUUACUUCGAGAUUCTT against Socs4, the z-score is reported as inactive: -0.182. With GGAAAAGACUAAAAUGCUUTT against Rbm5 the z-score was inactive: 0.858. For GGUGUCAUGAUGGAGCUGATT against Crygc, the z-score was inactive: -0.709. For “GGGCGAGGAAGAAGAAUCUTT against D530031C13Rik”, the z-score was inactive: 0.773. For GGUCCCUGCAAAGUAGAAUTT against Olfr1153, the z-score was inactive: 1.18. With GGAACCUGUGGAGAAGGCUTT against Zfp101 the z-score was inactive: 0.554. In the case of GGAUGUUGAUUUUCAUGGUTT against Grpel2, the z-score is reported as inactive: 0.803. For “GGCAGUCAGUUUAAAUAAATT against B930067F20Rik”, the z-score was inactive: -1.5. For “GGAGAAUGCCAAGCAUCGATT against 1500005N04Rik”, the z-score was inactive: -0.789. In the case of GACAAUAUCUCUGAAUGGATT against Olfr459, the z-score is reported as inactive: -0.307. In the case of GGACUAAACAGAUUCACUATT against Rnase9, the z-score is reported as inactive: -0.661. For GGAAGUCCACGAAACUAAATT against Csh1, the z-score was inactive: 0.149. For GCUCAGACUGGUCCCUUAATT against Ywhab, the z-score was inactive: -1.63. With GGAUAACUGUAACAGCCCGTT against Ly6g6c the z-score was inactive: -0.597. For GCUUCUAACUACACAGACUTT against Cd63, the z-score was inactive: 0.499. With GGUGAUCACUAAACUCCAATT against Msh4 the z-score was inactive: -0.0659. For GGUGAAGGUGAAACGAUAUTT against Mfap1, the z-score was inactive: -2.18. In the case of GGGUGCUGAUGGACAAUAATT against Speer3, the z-score is reported as inactive: -0.67. For GGAAUCACAUCCAGUUGGUTT against Diablo, the z-score was inactive: 0.946. With GGAUAAGAAGAAAUGUCUGTT against 6-Sep the z-score was inactive: -0.0425. For GGAAGUUUCUGAAGGAACATT against Olfr630, the z-score was inactive: -0.123. With CCUGUAGGAGUGACUUCCUTT against Crbn the z-score was inactive: -1.38. In the case of GGCUUGUUUCCACCAAUAGTT against Creb3l2, the z-score is reported as inactive: -1.03. For “GCCCAAACGUGCAGUAAGUTT against 2610029D06Rik”, the z-score was inactive: -0.704. With GCACUUGUUGUUAUACUUCTT against Olfr23 the z-score was inactive: -0.264. In the case of GCGGAAAUCUAAUUGCUUGTT against Htatip, the z-score is reported as inactive: -1.22. For GGAACGAACUUACAGAGAUTT against Krt1-c29, the z-score was inactive: 0.0974. For GGGAGUUUCCAGAUGUUUUTT against Gclm, the z-score was inactive: -0.186. For GGCUUGGCUUCUUUAUUGUTT against Olfr218, the z-score was inactive: 0.0325. In the case of “GGUUUGAAUUAGGUUAGAGTT against D330024H06Rik”, the z-score is reported as inactive: -0.647. In the case of GUGGCAGCACGACCUAUUCTT against Refbp2, the z-score is reported as inactive: -2.32. With GGGCGAGAUCGCUACUAUUTT against Irf2bp1 the z-score was inactive: -0.881. For “GGUUUUGUGGGAAGAGUCATT against 0610037D15Rik”, the z-score was inactive: -2.4. With GCCGGACAACUCUAAUCAGTT against Herpud1 the z-score was inactive: 1.32. In the case of GGUCUAGGAUCAAUGCCUATT against Trpc3, the z-score is reported as inactive: -0.341. For “GGAAGACAAUAAGAAGUGGTT against 9130404D14Rik”, the z-score was inactive: -1.42. For GGAUUUCUUCCAGAAGAUGTT against Grhpr, the z-score was inactive: 0.431. In the case of GGGAAAAGCUUUGGUUGCCTT against Gpsm2, the z-score is reported as inactive: -0.913. In the case of GCCUGCUAGUUAUGUUUCATT against MGC90611, the z-score is reported as inactive: -3.01. For GCUAGAUACUAACAACUCCTT against T, the z-score was inactive: 2.4. With “GCCUGCAUUAAACUCAUGUTT against A930017M01Rik” the z-score was inactive: -1.37. For GCCGAAAAUUACCAAAUGATT against Cnksr2, the z-score was inactive: -1.22. With GGUUUAAAGAAACUACCAGTT against Pam the z-score was inactive: 0.257. For “GGUCAUGAAAAUUAAAGCATT against 1110059G10Rik”, the z-score was inactive: 2.13. In the case of “CCCUUCACACGAGUAUGAATT against 1700027N10Rik”, the z-score is reported as inactive: 0.279. With GACAAGGUGCCAUACCAUUTT against Olfr351 the z-score was inactive: 0.712. With GUUUCAGUGCAGCCAUUACTT against Olfr518 the z-score was inactive: 0.805. In the case of GCAAGAGGAACCUUUCUUGTT against Mmp17, the z-score is reported as inactive: -0.475. With GAACUAAGACACAUCUUUGTT against Tnni3k the z-score was inactive: 0.987. In the case of GCAUCUAACUACUUGGGCCTT against Hhip, the z-score is reported as inactive: 0.3. In the case of CCAGAACUUCCCAUUAAAATT against Alg8, the z-score is reported as inactive: -0.0137. With GGAUUUUUCAGGAGAUAUGTT against Ubtf the z-score was inactive: -1.5. For GCUUAUACACAGUACAGAATT against D6Mm5e, the z-score was inactive: -0.476. With GGACAAGAAGAACAUCAUCTT against Cfl1 the z-score was inactive: 0.526. With GGUGUGUGGUUUUUAAUAATT against Abhd3 the z-score was inactive: 0.437. In the case of GCAAUUAGUCACCAAGGCCTT against Ube2v1, the z-score is reported as inactive: -0.986.

Reference: PubChem BioAssay AID1347423 (Functional Genomics Laboratory (NCATS/FGL), 2020)
